The test addresses integrin αvβ3 on U87 glioblastoma cells (UniProt P06756). The experiment in a line: confocal fluorescence of Alexa Fluor-488 labeled GVs after 24 hr on U87 cells.

The chains behind the UniProt entries cited, without tags or fusion partners. Where a name states a change or a piece, a line headed by the entry shows the natural chain unless it says otherwise.
UniProt P06756: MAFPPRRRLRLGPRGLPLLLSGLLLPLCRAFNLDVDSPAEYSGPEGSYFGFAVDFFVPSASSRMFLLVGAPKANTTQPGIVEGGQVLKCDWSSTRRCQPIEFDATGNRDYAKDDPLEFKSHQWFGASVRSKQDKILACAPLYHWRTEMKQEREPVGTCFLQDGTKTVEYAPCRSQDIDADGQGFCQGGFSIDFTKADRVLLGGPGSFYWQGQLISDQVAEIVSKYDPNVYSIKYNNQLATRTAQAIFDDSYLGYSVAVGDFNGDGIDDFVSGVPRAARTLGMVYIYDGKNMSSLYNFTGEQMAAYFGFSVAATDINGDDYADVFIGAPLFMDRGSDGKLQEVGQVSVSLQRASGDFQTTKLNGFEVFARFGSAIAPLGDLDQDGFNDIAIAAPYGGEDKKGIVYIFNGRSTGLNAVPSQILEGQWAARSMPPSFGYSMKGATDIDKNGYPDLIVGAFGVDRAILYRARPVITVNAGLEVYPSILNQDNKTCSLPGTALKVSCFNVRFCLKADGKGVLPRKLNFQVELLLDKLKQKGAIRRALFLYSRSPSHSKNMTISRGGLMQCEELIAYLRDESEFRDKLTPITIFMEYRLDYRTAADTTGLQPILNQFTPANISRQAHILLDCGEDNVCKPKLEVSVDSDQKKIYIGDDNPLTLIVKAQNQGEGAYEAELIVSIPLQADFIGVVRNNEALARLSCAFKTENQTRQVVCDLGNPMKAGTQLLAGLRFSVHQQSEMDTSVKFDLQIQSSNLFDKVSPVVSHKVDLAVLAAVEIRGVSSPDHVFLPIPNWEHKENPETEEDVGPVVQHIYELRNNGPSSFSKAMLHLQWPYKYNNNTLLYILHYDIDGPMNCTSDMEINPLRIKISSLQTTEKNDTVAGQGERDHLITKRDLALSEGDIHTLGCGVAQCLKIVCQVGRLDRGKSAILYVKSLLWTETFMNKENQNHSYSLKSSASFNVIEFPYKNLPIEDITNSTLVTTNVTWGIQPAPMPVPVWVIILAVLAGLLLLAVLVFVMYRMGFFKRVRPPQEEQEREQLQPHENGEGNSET

The text below walks through data of patent US20180028693A1.

Results are given in words; binding and its absence hold for the method and conditions named. Some entries that bind do so weakly or less than the wild type. Sequences can lack the tags named with a protein.

B1: GvpCWT-RGD (GvpC comprising a His-tag in the N-terminal region and an RGD tag fused to the C-terminus) (protein)
chain: MGHHHHHHSGISLMAKIRQEHQSIAEKVAELSLETREFLSVTTAKRQEQAEKQAQELQAFYKDLQETSQQFLSETAQARIAQAEKQAQELLAFHKELQETSQQFLSATAQARIAQAEKQAQELLAFYQEVRETSQQFLSATAQARIAQAEKQAQELLAFHKELQETSQQFLSATADARTAQAKEQKESLLKFRQDLFVSIFGSGCDCRGDCFC
Turning to B1, the binding entry is reported as “binds”.
